Results taken from publication PMC10174618, “Monoterpenoid aryl hydrocarbon receptor allosteric antagonists protect against ultraviolet skin damage in female mice” (Nature Communications, 2023).
Results are given in words; binding and its absence hold for the method and conditions named. Binding seen in cells or lysates may run through a third protein. Some entries that bind do so weakly or less than the wild type.

Sequences of proteins named here, by UniProt entry; tags and fusion partners are left off. A change or cut given only in a name is not applied to a line headed by its entry. Residues count along the entry.
UniProt P35869: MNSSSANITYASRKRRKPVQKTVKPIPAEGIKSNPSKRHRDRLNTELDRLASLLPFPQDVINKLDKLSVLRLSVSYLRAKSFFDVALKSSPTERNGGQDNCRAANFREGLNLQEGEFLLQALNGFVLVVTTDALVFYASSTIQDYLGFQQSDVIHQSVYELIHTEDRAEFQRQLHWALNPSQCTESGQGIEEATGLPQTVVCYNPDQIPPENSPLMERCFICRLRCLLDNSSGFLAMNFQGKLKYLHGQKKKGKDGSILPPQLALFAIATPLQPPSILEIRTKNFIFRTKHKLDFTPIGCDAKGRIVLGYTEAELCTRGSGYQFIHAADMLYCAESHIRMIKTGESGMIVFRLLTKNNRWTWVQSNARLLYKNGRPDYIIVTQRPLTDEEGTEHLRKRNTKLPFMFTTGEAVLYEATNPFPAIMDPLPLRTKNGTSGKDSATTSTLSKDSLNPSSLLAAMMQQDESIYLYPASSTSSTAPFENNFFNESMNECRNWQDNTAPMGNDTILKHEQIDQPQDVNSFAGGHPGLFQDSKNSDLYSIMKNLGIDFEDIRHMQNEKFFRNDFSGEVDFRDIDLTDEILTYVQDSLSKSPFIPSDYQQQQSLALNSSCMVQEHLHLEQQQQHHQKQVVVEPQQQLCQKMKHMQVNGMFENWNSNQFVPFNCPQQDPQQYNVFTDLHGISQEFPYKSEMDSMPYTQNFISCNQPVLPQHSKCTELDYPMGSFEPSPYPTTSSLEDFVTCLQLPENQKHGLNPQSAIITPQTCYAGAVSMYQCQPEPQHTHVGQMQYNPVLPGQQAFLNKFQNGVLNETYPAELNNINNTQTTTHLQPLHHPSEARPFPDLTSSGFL
aryl hydrocarbon receptor (AhR) (human (endogenous in LS180)): residues 11-848 of P35869
His-AhR(23-273): residues 23-273 of P35869
UniProt P27540: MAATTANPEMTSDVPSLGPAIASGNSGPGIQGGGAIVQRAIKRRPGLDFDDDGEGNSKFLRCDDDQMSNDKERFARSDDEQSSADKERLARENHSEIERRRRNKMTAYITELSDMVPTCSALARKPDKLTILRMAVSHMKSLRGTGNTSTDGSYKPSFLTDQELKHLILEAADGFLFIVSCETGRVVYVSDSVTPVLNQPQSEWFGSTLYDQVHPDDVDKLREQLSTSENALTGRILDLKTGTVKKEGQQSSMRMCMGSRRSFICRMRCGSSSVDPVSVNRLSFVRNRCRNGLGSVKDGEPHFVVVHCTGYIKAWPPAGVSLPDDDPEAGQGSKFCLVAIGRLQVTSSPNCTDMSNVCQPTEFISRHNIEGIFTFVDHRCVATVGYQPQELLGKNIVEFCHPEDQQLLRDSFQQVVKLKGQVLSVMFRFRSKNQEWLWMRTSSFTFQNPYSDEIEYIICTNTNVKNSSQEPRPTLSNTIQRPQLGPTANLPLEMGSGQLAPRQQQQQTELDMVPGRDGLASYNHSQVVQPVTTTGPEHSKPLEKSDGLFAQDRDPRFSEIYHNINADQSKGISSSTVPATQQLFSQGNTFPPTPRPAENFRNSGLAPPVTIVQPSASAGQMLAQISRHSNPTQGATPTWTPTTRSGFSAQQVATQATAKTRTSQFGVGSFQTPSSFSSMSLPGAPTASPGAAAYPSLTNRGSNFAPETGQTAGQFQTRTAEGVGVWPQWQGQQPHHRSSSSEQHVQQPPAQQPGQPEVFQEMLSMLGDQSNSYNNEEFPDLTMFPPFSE

Experiments:
[1] = biological target: aryl hydrocarbon receptor (AhR) (human (endogenous in LS180)) (UniProt P35869); experiment: co-IP; anti-AhR antibody covalently coupled to resin (Pierce Co-Immunoprecipitation Kit), incubated with lysate overnight at 4 °C; lysates of LS180 cells incubated 90 min at 37 °C with TCDD (20 nM), BaP (7 μM) or FICZ (8 nM), with or without carvones (1000 μM) or monoterpenoid analogs; blot for …
[2] = biological target: His-AhR(23-273) (human) (UniProt P35869); experiment: pull-down; co-purification: His-AhR(23-273) and FLAG-Arnt(85-345) coexpressed in E. coli, lysate passed over HisPur Cobalt columns; final buffer 20 mM HEPES pH 7.0, 300 mM NaCl, 5% glycerol; both proteins verified by Western blot (anti-His-tag, anti-FLAG-tag)

binding [1]	binding [2]	Substance
binds	–	AhR nuclear translocator (ARNT) (from UniProt P27540 1-789)
–	binds	FLAG-Arnt(85-345) (from UniProt P53762 85-345) (domain or fragment)
